PubChem BioAssay AID504467 (National Center for Advancing Translational Sciences (NCATS), 2011)
In all, about 330,000 compounds went through this assay and about 7,700 (2.3%) were called active. This list was built around the results that the source calls inconclusive (neither active nor inactive); the mix of calls is not that of the screen. Calls come from the whole dose curve; as a rule, active = well fitted inhibition curve with a large enough effect; inconclusive = small, poorly fitted or top-dose-only effect, or effect the other way; inactive = flat fitted curve, though single readings scatter. Where the call is inconclusive, the potency comes from a doubtful curve fit.

Test: qHTS screen for small molecules that inhibit ELG1-dependent DNA repair in human embryonic kidney (HEK293T) cells expressing luciferase-tagged ELG1; note: nearly all actives have a fitted effect of over 55% in size
Settings: HEK293T ELG1-luciferase reporter, luminescence, 16 h, DNA damage induced by 5-fluorouridine; activity change, negative = inhibition: at 46.1 µM (top of the series)
In short: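 DMSO vehicle served as the neutral condition. Each well held 2,000 cells given 5-fluorouridine plus compound; after 16 hr at 37 °C/5% CO2, ONE-Glo was added and luciferase measured 30 min later.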
% is set by controls: 0 for no effect and ±100 for the full control effect; potency is the fitted concentration of half-maximal effect.

| Compound | Potency | activity change, negative = inhibition |
| --- | --- | --- |
| O=C(CSc1nnc(Cc2ccc3c(c2)OCO3)n1C1CCCCC1)NC1CCCC1 | inconclusive: 7.31 µM [inhibitor, full curve, poor fit] | – |
| O=C(NC1CCCCC1)C(c1ccncc1)N(C(=O)c1csnn1)c1ccc(F)cc1 (centres undefined) | – | inactive: 8.59% |
| O=C(Nc1ccc(NC(=O)C2CC2)nc1)c1ccccn1 | inconclusive: 2.91 µM [activator, partial curve] | – |
| O=C(CSc1nc(Nc2ccccc2)nc(N2CCOCC2)n1)Nc1cc(Cl)ccc1O | inconclusive: 29.1 µM [inhibitor, single point] | – |
| c1ccc2nc3c(nc2c1)OCC1CCCCN31 (centres undefined) | inconclusive: 3.66 µM [activator, full curve] | – |
| CCc1cc2c(NC(Cc3c[nH]c4ccccc34)C(=O)O)nc(C)nc2s1 (centres undefined) | inconclusive: 9.2 µM [activator, partial curve] | – |
| CCC(C)[C@H](NC(=O)[C@@H]1Cc2ccccc2CN1)C(=O)NCc1ccc(OC)cc1 (some centres undefined) | inconclusive: 29.1 µM [activator, single point] | – |
| Cc1ccc(C)c(NC(=O)CN(C)S(=O)(=O)c2ccccc2)c1 | – | inactive: -13.6% |
| Cn1nc(-c2ccc(C(=O)Nc3cccnc3)cc2)c2ccccc2c1=O | inconclusive: 18.4 µM [inhibitor, single point] | – |
| Fc1cccc(CNc2ncnc3ccc(-c4ccc5c(c4)OCO5)cc23)c1 | inconclusive: 20.6 µM [activator, single point] | – |
| O=C1c2c(O)ccc(O)c2C(=O)c2c(NCCNCCO)ccc(NCCNCCO)c21 | active: 11.2 µM | – |
| CCOc1ccc(NC(=O)CN(C)C(=O)c2ccc(COc3ccccc3)cc2)cc1OCC | – | inactive: -14.8% |
| COc1cc(C)nc(Oc2ccc(/C=N/O)cc2)n1 | inconclusive: 29.1 µM [activator, single point] | – |
| Cn1cc(C(=O)NC2CCCCC2)c(=O)c2cc(S(=O)(=O)N3CCCC3)ccc21 | – | inactive: 9.15% |
| CCCCN(CC)CCNC(=O)c1cc2c(=O)[nH]c3ccc(C)cc3c2s1 | – | inactive: -3.6% |
| Cc1cc2cc(CNC(=O)Nc3ccccc3)ccc2[nH]1 | inconclusive: 6.51 µM [activator, single point] | – |
| COc1ccc(C2CC(c3ccccc3)=NN2C(=O)COC(=O)c2cccc(S(=O)(=O)N(C)C)c2)cc1 (centres undefined) | inconclusive: 18.4 µM [inhibitor, partial curve] | – |
| COc1ccc(Cn2c(-c3ccc(C)cc3)c[n+]3ccccc23)cc1 | inconclusive: 0.184 µM [inhibitor, partial curve, poor fit] | – |
| CCn1cc(C(=O)NCc2ccc3c(c2)OCO3)c(=O)c2cc(S(=O)(=O)N3CCOCC3)ccc21 | inconclusive: 18.4 µM [inhibitor, single point] | – |
| O=C1NC(=S)S/C1=C\c1coc2ccc(O)cc2c1=O | inconclusive: 29.1 µM [activator, single point] | – |
| Cc1ccc(-c2nc3ccccc3n3nnnc23)cc1 | inconclusive: 5.8 µM [activator, partial curve] | – |
| Cc1nonc1NC(=O)CSc1nc2ccccc2o1 | – | inactive: 7.69% |

| Compound | Potency | activity change, negative = inhibition |
| --- | --- | --- |
| CCCSc1cc(=O)n(-c2ccccc2)nc1C(=O)O | inconclusive: 23.1 µM [activator, partial curve, poor fit] | – |
| Cc1ccc(C(=O)NNC(=S)NC(=O)c2ccco2)cc1 | inconclusive: 9.2 µM [inhibitor, partial curve, poor fit] | – |
| CCOC(=O)c1c(NC(=S)NCc2ccccc2)sc2c1CCN(C(=O)OCC)C2 | inconclusive: 20.6 µM [inhibitor, partial curve] | – |
| O=c1[nH]c2cc3c(cc2cc1CN(Cc1cccnc1)Cc1nnnn1Cc1ccco1)OCCO3 | active: 23.1 µM | – |
| CCCCNC(=O)C1CCCN1S(=O)(=O)c1cccc2nsnc12 (centres undefined) | – | inactive: -3.65% |
| COC(=O)c1sccc1-c1ccc(C(N)=O)o1 | – | inactive: -18.4% |
| CCOc1ccc(S(=O)(=O)N(CC(=O)Nc2cccnc2)c2ccc(F)cc2)cc1 | inconclusive: 23.1 µM [inhibitor, single point] | – |
| COc1cc(OC)cc(-c2cc3nc(C4CCN(C(=O)OC(C)(C)C)CC4)cc(=O)n3[nH]2)c1 | inconclusive: 23.1 µM [inhibitor, single point] | – |
| COCCCNC(=O)C1CCC(CNS(=O)(=O)c2ccc3c(c2)CC(C)N3C(=O)C2CC2)CC1 (centres undefined) | – | inactive: 1% |
| O=c1[nH]nc(SCc2nnc(-c3cccc(Cl)c3)o2)n1C1CCCCC1 | inconclusive: 18.3 µM [inhibitor, single point] | – |
| Cc1ccc(NC(=O)COC(=O)C2=NNC(=O)CC2)c(Br)c1 | – | inactive: 19% |
| Cc1cc(N2CCN(S(=O)(=O)c3ccccc3)CC2)c2ccccc2n1 | inconclusive: 29.1 µM [inhibitor, single point] | – |
| COc1ccc(NCC(=O)Nc2ccccc2C#N)cc1Cl | inconclusive: 23.1 µM [inhibitor, single point] | – |
| Cc1cc(C)nc(NS(=O)(=O)c2ccc(NC(=O)Cc3ccccc3F)cc2)n1 | – | inactive: -6.74% |
| COc1ccc(C2C(C(=O)N3CCOCC3)c3ccccc3C(=O)N2c2ccc(OC)cc2)cc1 (centres undefined) | inconclusive: 0.103 µM [activator, full curve] | – |
| Cc1ccc(/C(N)=N/OC(=O)c2cccc(F)c2)cc1 | inconclusive: 3.66 µM [activator, partial curve, poor fit] | – |
| CCOC(=O)c1sc(NC(=O)c2ccc(S(=O)(=O)N3CCCCCC3)cc2)nc1-c1ccccc1 | active: 13 µM | – |
| CCCCn1cc2c(c1-c1cccc(C)c1)c(=O)n(C)c(=O)n2C | – | inactive: -1.85% |
| Cc1ccc(-c2nc3cc(NC(=O)C(C)C)ccc3o2)cc1 | inconclusive: 0.58 µM [activator, partial curve] | – |
| COc1ccc(CCN(C)Cc2ccc(C(=O)Nc3ccccc3)cc2)cc1OC | active: 7.3 µM | – |
| O=C(/C=C/c1ccccc1Cl)NCc1cccs1 | inconclusive: 20.6 µM [activator, partial curve] | – |
| CCn1ncc([N+](=O)[O-])c1C(=O)n1nc(C)cc1C | inconclusive: 20.6 µM [activator, partial curve] | – |

For convenience, part of the list above.

| Compound | Potency | activity change, negative = inhibition |
| --- | --- | --- |
| Cc1ccc(/C(N)=N/OC(=O)c2cccc(F)c2)cc1 | inconclusive: 3.66 µM [activator, partial curve, poor fit] | – |
| CCOC(=O)c1sc(NC(=O)c2ccc(S(=O)(=O)N3CCCCCC3)cc2)nc1-c1ccccc1 | active: 13 µM | – |
